Laboratory results from article PMC9208448.
No constants are given. Whether binding was seen depends on the method and setting. Binding seen in cells or lysates may run through a third protein. Some entries that bind do so weakly or less than the wild type.

By UniProt entry, the sequences of proteins in these tests, tags left out.
UniProt O54857: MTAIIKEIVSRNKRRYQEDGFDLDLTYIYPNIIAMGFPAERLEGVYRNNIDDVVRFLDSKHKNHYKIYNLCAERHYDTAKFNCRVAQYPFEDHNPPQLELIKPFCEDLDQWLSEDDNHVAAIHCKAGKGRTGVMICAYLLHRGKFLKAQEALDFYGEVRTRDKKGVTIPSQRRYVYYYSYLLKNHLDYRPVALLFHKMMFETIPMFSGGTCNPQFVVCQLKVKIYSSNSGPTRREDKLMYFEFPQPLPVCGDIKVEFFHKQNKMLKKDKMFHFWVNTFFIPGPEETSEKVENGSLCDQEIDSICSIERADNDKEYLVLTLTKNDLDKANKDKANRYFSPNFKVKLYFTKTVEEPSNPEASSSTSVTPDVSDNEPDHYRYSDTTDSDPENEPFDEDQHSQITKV

Target: PTEN (phosphatase tensin homolog) (rat (endogenous in NRCMs)) (UniProt O54857)
Test: co-IP; whole-cell extracts of NRCMs after transfection or stimulation, incubated overnight with antibodies plus Protein A/G beads, washed five times, SDS-PAGE and Western blot; bait not stated

binding: binds
B1: Tripartite motif-containing 27 (protein, UniProt A0A0G2K8V4 1-513)
chain: MASGSVAESLQQETTCPVCLQYFVEPMMLDCGHNICCACLARCWGAAETNVSCPQCRETFPQRHMRPNRHLANVTQLVKQLRTERPSGPDGEMGVCEKHREPLKLYCEQDQMPICVVCDRSREHRGHSVLPLEEAVEGFKEQIQNRLDHLRRVKDLKKRRRAQGEQARAELLSLTQMEREKIVWEFEQLYHSLKEHEYRLLARLEELDLAIYNSINGAITQFSCNISHLSGLIAQLEEKQQQPTRELLQDIGDTLSRAERIRIPEPWITPPDLQEKIHIFAQKCLFLTESLKQFTEKMQSDMEKIQELREAQLYSVDVTLDPDTAYPSLILSDNLRQVRYSYLQQDLPDNPERFNLFPCVLGSPCFIAGRHYWEVEVGDKAKWTIGVCEDSVCRKGGVTSAPQNGFWAVSLWYGKEYWALTSPMTALPLRTPLQRVGIFLDYDAGEVSFYNVTERCHTFTFSHATFCGPVRPYFSLSYSGGKSAAPLIICPMSGIDGFSGHVGNHGHSMETSP
